According to PubChem BioAssay AID1439 (NMMLSC, 2008):
In all, about 220,000 compounds went through this assay and about 770 (0.35%) were called active. Inconclusive means that the source gave no clear call. Such entries were picked first, then a sample of the others. Rule as the data show it: active = binding response below about 49% or above about 150%; inconclusive = no clear call, values can overlap the other calls; inactive = in between.

Amino acid sequences for entries named in this document (tags omitted).
UniProt P09471, whole entry, looked up: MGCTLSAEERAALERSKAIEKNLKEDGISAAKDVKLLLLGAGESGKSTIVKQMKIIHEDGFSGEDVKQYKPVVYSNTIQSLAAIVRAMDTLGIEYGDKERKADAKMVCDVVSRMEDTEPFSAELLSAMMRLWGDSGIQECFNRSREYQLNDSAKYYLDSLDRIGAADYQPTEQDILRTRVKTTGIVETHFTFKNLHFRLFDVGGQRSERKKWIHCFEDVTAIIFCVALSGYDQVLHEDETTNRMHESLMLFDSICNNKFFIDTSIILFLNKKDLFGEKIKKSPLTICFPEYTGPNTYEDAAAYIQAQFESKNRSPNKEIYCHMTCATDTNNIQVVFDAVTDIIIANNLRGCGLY

target: Guanine nucleotide-binding protein G(o) subunit alpha (Homo sapiens) (UniProt P09471); assay: RGS7-Galphao binding modulators, primary screen, biochemical, multiplexed bead flow cytometry (AID 1439); settings: at 10 µM, actives lie on both sides;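 also: fluorescent Galphao held in activated GDP-AlF4 state binding bead-coupled RGS7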

SMILES | binding response (% of control)
OC(CN1CCN(c2ccccc2)CC1)c1c[nH]c2ccccc12 (configuration not stated) | inactive: 95.4%
CN1C(=O)c2ccccc2Sc2ccc(NC(=O)NC3CC3)cc21 | inactive: 133%
O=C(O)c1cc2ccccc2cc1Nc1ccccc1 | inconclusive: 123%
COc1ccc(CCNC(=O)C2CC(c3cc(C(F)(F)F)cc(C(F)(F)F)c3)=NO2)cc1 (configuration not stated) | inconclusive: 102%
CC(C)C(=O)NNc1ccc(C(F)(F)F)cn1 | inconclusive: 103%
Fc1ccccc1Cn1c2[n+](c3ccc(C(F)(F)F)cc31)CCCCC2 | inconclusive: 105%
COc1cc(NC(=S)Nc2ccc3c(c2)OCCO3)cc(OC)c1OC | inconclusive: 74.6%
COc1cccc2cc(C(=O)C3=C(O)C(=O)N(CCN4CCOCC4)C3c3ccc(Cl)cc3)oc12 (configuration not stated) | inconclusive: 14.6%
OC[C@@H]1CCCN1Cc1cn(-c2ccccc2)nc1-c1ccc2c(c1)OCO2 | inactive: 104%
N#Cc1nccnc1S(=O)(=O)c1cccs1 | inconclusive: 80.4%
CC1(C)CC(=O)C(N=Nc2ccc(C(F)(F)F)cc2[N+](=O)[O-])=C(O)C1 | inconclusive: 125%
CCCn1c(SCC(=O)N2CCCC(C)C2)nnc1-c1ccccn1 (configuration not stated) | inconclusive: 91.4%
O=C(O)/C=C/C(=O)Nc1ccc(OC(F)F)cc1 | inconclusive: 94.6%
CCOc1cc(C(=O)NC)cc(Br)c1OC | inconclusive: 101%
C=CCNC(=S)N(Cc1ccccc1)Cc1ccc(F)cc1 | inconclusive: 82.7%
Cc1csc2c(N3CCN(C(=O)Nc4ccc(OC(F)(F)F)cc4)CC3)ncnc12 | inconclusive: 79.8%
Fc1ccc(-c2csc(-c3ccc(C4SCCS4)cc3)n2)cc1F | inconclusive: 96.5%
N#Cc1c(N2CCOCC2)nc(N)c2c(N)nc3c(c12)CC(CCl)O3 (configuration not stated) | inconclusive: 55.9%
Cc1cc(NCc2ccccn2)n2nc(C)c(-c3ccccc3)c2n1 | inconclusive: -47.3%
Nc1nc(N)c2c(n1)CCCC2 | inconclusive: 89.8%
Cc1cc(-c2cc(-c3ccccc3)on2)nc(NCC2CC2)n1 | inconclusive: 121%
Cc1ccc(Oc2cnn(-c3ccccc3)c(=O)c2Br)cc1 | inconclusive: 146%
Cn1c(SC2CCCCC2=O)nnc1-c1ccccc1F (configuration not stated) | inactive: 102%

SMILES | binding response (% of control)
CCCCNC(=O)Oc1c(Br)cc2sc(=O)oc2c1Br | inconclusive: 97.1%
CC(C)C(=O)NC(NC1CCS(=O)(=O)C1)C(Cl)(Cl)Cl (configuration not stated) | inactive: 113%
CCOc1ccc(NCc2nnc(SCc3ccc(Cl)cc3)n2-c2ccccc2)cc1 | inactive: 99.5%
CCc1ccc(S(=O)(=O)NCc2ccc(N3CCN(C)CC3)cc2)cc1 | inconclusive: 81.2%
CCOC(=O)/C(C#N)=C/Nc1cc(C(C)(C)C)sc1C(C)=O | inconclusive: 73.5%
CC1(C)N=C(N)N=C(N)N1c1cccc(CN)c1 | inconclusive: 107%
CN(C)C=NC(=O)c1cc(C(=O)c2ccccc2)c[nH]1 | inconclusive: 86.5%
CCC/C(O)=C1\C(=O)CC(c2ccccc2)CC1=NCCc1c(C)[nH]c2ccc(C)cc12 (configuration not stated) | inactive: 52.2%
O=C(CNC1CCCC1)Nc1ccc(N2CCCCCC2)cc1 | inconclusive: 93.6%
CCCCC(=O)Nc1ccccc1Oc1ccccc1 | inconclusive: 106%
CC(=O)N(c1cccc(Cl)c1)c1nc(C)cc(C)c1C#N | inconclusive: 70.1%
C#CCOCCOCCOCCNc1nc(N2CCN(C(=O)[C@H](Cc3cc4ccccc4[nH]3)n3cc([C@@H](N)Cc4ccc(O)cc4)nn3)CC2)nc(N2CCN(C(=O)[C@H](Cc3cc4ccccc4[nH]3)n3cc([C@@H](N)CC(C)C)nn3)CC2)n1 | inconclusive: 62.5%
CCNC(=S)N1CCC(C(N)=O)CC1 | inconclusive: 87.9%
CC(=O)Nc1ccc(NC(=O)CSc2ccc(-c3cccs3)nn2)cc1 | inconclusive: 116%
CC[n+]1c(C)sc2sc3ccccc3c21 | inconclusive: 96.8%
CCN1CCN(CC(=O)Nc2ccc3c(c2)OCO3)C(=O)C1=O | inactive: 96.4%
CCOC(=O)C1=NNC2(c3ccc(C)cc3)C(=O)N(c3ccc(Cl)cc3)C(=O)C12 (configuration not stated) | inactive: 101%
Cc1ccc(OCC(=O)NS(=O)(=O)c2ccccc2)cc1 | inconclusive: 96.3%
Cc1c(Cl)cccc1NC(=S)NCCc1ccccn1 | inconclusive: 37.9%
CCn1nc(C)c(Br)c1-c1nc(CS(=O)(=O)c2ccsc2)no1 | inconclusive: 115%
CCc1nc2sc3c(=O)[nH]cnc3c2c2c1CSC(C)(C)C2 | inconclusive: 89.8%
Cc1ccc(-c2nn(CC(N)=O)c(=O)c3ccccc23)cc1S(=O)(=O)N(C)C | inactive: 101%
CCNc1nc(NCC)nc(ON=C(C)C)n1 | inactive: 102%

18 of the compounds above, as comma-separated lines:
SMILES,binding response (% of control)
CCOC(=O)/C(C#N)=C/Nc1cc(C(C)(C)C)sc1C(C)=O,inconclusive: 73.5%
CC1(C)N=C(N)N=C(N)N1c1cccc(CN)c1,inconclusive: 107%
CN(C)C=NC(=O)c1cc(C(=O)c2ccccc2)c[nH]1,inconclusive: 86.5%
CCC/C(O)=C1\C(=O)CC(c2ccccc2)CC1=NCCc1c(C)[nH]c2ccc(C)cc12 (configuration not stated),inactive: 52.2%
O=C(CNC1CCCC1)Nc1ccc(N2CCCCCC2)cc1,inconclusive: 93.6%
CCCCC(=O)Nc1ccccc1Oc1ccccc1,inconclusive: 106%
CC(=O)N(c1cccc(Cl)c1)c1nc(C)cc(C)c1C#N,inconclusive: 70.1%
C#CCOCCOCCOCCNc1nc(N2CCN(C(=O)[C@H](Cc3cc4ccccc4[nH]3)n3cc([C@@H](N)Cc4ccc(O)cc4)nn3)CC2)nc(N2CCN(C(=O)[C@H](Cc3cc4ccccc4[nH]3)n3cc([C@@H](N)CC(C)C)nn3)CC2)n1,inconclusive: 62.5%
CCNC(=S)N1CCC(C(N)=O)CC1,inconclusive: 87.9%
CC(=O)Nc1ccc(NC(=O)CSc2ccc(-c3cccs3)nn2)cc1,inconclusive: 116%
CC[n+]1c(C)sc2sc3ccccc3c21,inconclusive: 96.8%
CCN1CCN(CC(=O)Nc2ccc3c(c2)OCO3)C(=O)C1=O,inactive: 96.4%
CCOC(=O)C1=NNC2(c3ccc(C)cc3)C(=O)N(c3ccc(Cl)cc3)C(=O)C12 (configuration not stated),inactive: 101%
Cc1ccc(OCC(=O)NS(=O)(=O)c2ccccc2)cc1,inconclusive: 96.3%
Cc1c(Cl)cccc1NC(=S)NCCc1ccccn1,inconclusive: 37.9%
CCn1nc(C)c(Br)c1-c1nc(CS(=O)(=O)c2ccsc2)no1,inconclusive: 115%
CCc1nc2sc3c(=O)[nH]cnc3c2c2c1CSC(C)(C)C2,inconclusive: 89.8%
Cc1ccc(-c2nn(CC(N)=O)c(=O)c3ccccc23)cc1S(=O)(=O)N(C)C,inactive: 101%

The results go on.

SMILES | binding response (% of control)
O=C(Cc1cccs1)Nc1cccc(-c2ccc3nncn3n2)c1 | inactive: 101%
Cc1ccc(NC(=O)Nc2nc3ccccc3s2)cc1NC(=O)Nc1nc2ccccc2s1 | inconclusive: -48.6%
Cc1ccc(C(=O)NCC(=O)OCC(=O)NCC(F)(F)F)cc1 | inconclusive: 113%
COc1ccccc1-c1cc2nc(C)c(CCC(=O)NCc3ccc(F)cc3)c(C)n2n1 | inconclusive: 112%
COc1ccc(C2=NC(CO)(CO)CO2)cc1 | inconclusive: 85.8%
O=C(c1cc2cccc([N+](=O)[O-])c2oc1=O)N1CCOCC1 | inconclusive: 108%
Cc1ccc2nc(C)c3c(c2c1)SCC3 | inconclusive: 542%
CC(/C=C1\SC(=S)N(CCC(=O)Nc2nc(C)cs2)C1=O)=C\c1ccccc1 | inconclusive: 84.8%
O=C1OCC/C1=C\OCCCO/C=C1\CCOC1=O | inconclusive: 102%
Cc1ccc(NC(=O)c2cncc(Br)c2)cc1S(=O)(=O)N(C)C | inactive: 97.4%
CN(C)C(=S)SCCn1c(N)nc(N(C)C)nc1=O | inconclusive: 55.5%
CCn1cc(C(=O)O)c(=O)c2cnc(N3CCN(C(=S)Nc4ccccc4)CC3)nc21 | inconclusive: 63.8%
Cc1c(N2C(=O)C3C4C=CC(C4)C3C2=O)c(=O)n(-c2ccccc2)n1C (configuration not stated) | inconclusive: 117%
O=C(CCC1CCCCC1)Nc1ccc(C(=O)c2ccncc2)cc1 | inactive: 103%
O=C(NNC(=O)c1nn(-c2ccc(F)cc2)ccc1=O)Nc1cccc(Cl)c1 | inconclusive: 86.9%
CC(C)=CCC(C)(C)C1OCCN1C(=O)Nc1ccccc1 (configuration not stated) | inactive: 103%
O=C1NC(CCc2ccccc2)C(=O)N1CCOc1cccc(Br)c1 (configuration not stated) | inactive: 99.5%
Cc1ccc(-n2c3c(c(=O)[nH]c2=O)C(NS(=O)(=O)c2ccc(C)cc2)(C(F)(F)F)C(=O)N3)cc1 (configuration not stated) | inactive: 101%
Cc1ccc(C(=O)Nc2ccc(CN3CCS(=O)(=O)CC3)cc2)cc1C | inconclusive: 50.6%
C[C@@]12CCC=C[C@H]1[C@H](c1ccc3ccccc3c1Br)N(Cc1ccccc1)C2=O | inconclusive: 107%
O=C(N/N=C/c1ccncc1)c1ccc(OCc2ccccc2)cc1 | inconclusive: 49.4%
CCc1nnc(NC(=O)CCn2cnc3ccccc3c2=O)s1 | inconclusive: 88.6%
O=C(Nc1ccccc1)O/N=C1/CCCc2occc21 | inconclusive: 80.5%

SMILES | binding response (% of control)
C/C(=N\Nc1ccc(F)cc1F)c1ccc(Br)s1 | inconclusive: 108%
CCCCCC(=O)N1CC2(CC)CN(C(=O)CCCCC)CC(CC)(C1)C2=O | inconclusive: 174%
COc1ccc(C[C@H]2c3cc(O)c(OC)cc3CC[N+]2(C)[O-])cc1O (some centres not stated) | inconclusive: 78.1%
O=C(NN1C(=O)/C(=C/c2cccs2)SC1=S)c1cccnc1 | inconclusive: 127%
Cc1cccc(NC(=O)NNC(=O)c2sccc2-n2cccc2)c1 | inconclusive: 190%
CCOC(=O)N1CCN(c2ccccc2OC)CC1 | inconclusive: 36%
CCCN1C(=O)/C(=C/c2c(NCCCOCC)nc3c(C)cccn3c2=O)SC1=S | inactive: 110%
CCOc1ccc(S(=O)(=O)NN=C2CCN(C(C)=O)CC2)cc1 | inactive: 94.3%
CSc1nc(C)c(C(=O)Nc2ccccc2)c(-c2ccco2)c1C#N | inconclusive: 115%
COc1cc(-c2ccc(NC(=O)NC3CC3)c(OC)c2)ccc1NC(=O)NC1CC1 | inconclusive: 698%
COc1ccc(C2=Nc3ccccc3OC2)cc1 | inactive: 98.6%
Clc1ccc(/C=C/c2ncc3ccccn23)cc1 | inactive: 95.6%
Cc1ccc2nc(-c3cc(N)cc(N)c3)oc2c1 | inactive: 80.5%
O=C(/C=C/c1ccc(Br)cc1)NC(=O)c1ccccc1O | inconclusive: 119%
CCC1Cc2c(nc(N)c3c(N)nc(N4CCOCC4)c(C#N)c23)O1 (configuration not stated) | inconclusive: 111%
COc1ccccc1N1C(=O)C2C(C(=O)c3ccccc3)=NN(c3ccccc3)C2C1=O (configuration not stated) | inconclusive: 107%
O=C(N/N=C/c1ccc([N+](=O)[O-])o1)c1cn(-c2ccccc2)nc1-c1ccc(Cl)cc1 | inconclusive: 85.7%
CCOC(=O)Cc1nc2cc(Cl)ccc2o1 | inactive: 97.5%
Cc1nn(C)c(Oc2cccc(C(F)(F)F)c2)c1C#N | inconclusive: 98.4%
CC(CC(=O)O)CC(=O)Nc1cc(C(F)(F)F)cc(C(F)(F)F)c1 (configuration not stated) | inconclusive: -220%
COc1cc(/C=C(/C(=O)c2cccs2)c2nc3ccccc3[nH]2)cc(OC)c1O | inactive: 101%
O=C(Nc1ccccc1)c1cccnc1Nc1ccccc1 | inactive: 99.9%
O=C(O)C1=C[C@H](c2cccs2)C[C@H](OCCCCO)O1 | inconclusive: 121%
